From paper PMC7011920, “Synthesis and biological evaluation of stilbene derivatives coupled to NO donors as potential antidiabetic agents” (Journal of Enzyme Inhibition and Medicinal Chemistry, 2018)

Assay: In vitro NO releasing property (detection of nitrite, Griess reagent)
Details: percentage of NO released relative to theoretical maximum of 1 mol NO/mol compound, 5 mM L-cysteine, pH 7.4, mean ± SD (n = 3)

SMILES	NO releasing activity (%)
COc1cc(/C=C/c2ccc(OCCO[N+](=O)[O-])cc2)cc(OC)c1 [3a, O4′-Nitrooxyethyl pterostilbene]	1.029 ± 0.009
COc1cc(/C=C/c2ccc(OCCCCCCO[N+](=O)[O-])cc2)cc(OC)c1 [3c]	1.391 ± 0.050
COc1cc(/C=C/c2ccc(OCCCCO[N+](=O)[O-])cc2)cc(OC)c1 [3b]	1.359 ± 0.034
